# Test results as given in the supplement of paper PMC7666118.
# Amino acid sequences for entries named in this document (tags omitted). A change or cut given only in a name is not applied to a line headed by its entry.
# UniProt Q9Y3C6: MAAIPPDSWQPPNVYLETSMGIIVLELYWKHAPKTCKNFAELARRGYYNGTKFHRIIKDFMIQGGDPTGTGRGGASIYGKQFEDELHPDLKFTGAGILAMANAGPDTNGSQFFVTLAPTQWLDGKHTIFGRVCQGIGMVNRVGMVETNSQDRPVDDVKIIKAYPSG
# UniProt P48736: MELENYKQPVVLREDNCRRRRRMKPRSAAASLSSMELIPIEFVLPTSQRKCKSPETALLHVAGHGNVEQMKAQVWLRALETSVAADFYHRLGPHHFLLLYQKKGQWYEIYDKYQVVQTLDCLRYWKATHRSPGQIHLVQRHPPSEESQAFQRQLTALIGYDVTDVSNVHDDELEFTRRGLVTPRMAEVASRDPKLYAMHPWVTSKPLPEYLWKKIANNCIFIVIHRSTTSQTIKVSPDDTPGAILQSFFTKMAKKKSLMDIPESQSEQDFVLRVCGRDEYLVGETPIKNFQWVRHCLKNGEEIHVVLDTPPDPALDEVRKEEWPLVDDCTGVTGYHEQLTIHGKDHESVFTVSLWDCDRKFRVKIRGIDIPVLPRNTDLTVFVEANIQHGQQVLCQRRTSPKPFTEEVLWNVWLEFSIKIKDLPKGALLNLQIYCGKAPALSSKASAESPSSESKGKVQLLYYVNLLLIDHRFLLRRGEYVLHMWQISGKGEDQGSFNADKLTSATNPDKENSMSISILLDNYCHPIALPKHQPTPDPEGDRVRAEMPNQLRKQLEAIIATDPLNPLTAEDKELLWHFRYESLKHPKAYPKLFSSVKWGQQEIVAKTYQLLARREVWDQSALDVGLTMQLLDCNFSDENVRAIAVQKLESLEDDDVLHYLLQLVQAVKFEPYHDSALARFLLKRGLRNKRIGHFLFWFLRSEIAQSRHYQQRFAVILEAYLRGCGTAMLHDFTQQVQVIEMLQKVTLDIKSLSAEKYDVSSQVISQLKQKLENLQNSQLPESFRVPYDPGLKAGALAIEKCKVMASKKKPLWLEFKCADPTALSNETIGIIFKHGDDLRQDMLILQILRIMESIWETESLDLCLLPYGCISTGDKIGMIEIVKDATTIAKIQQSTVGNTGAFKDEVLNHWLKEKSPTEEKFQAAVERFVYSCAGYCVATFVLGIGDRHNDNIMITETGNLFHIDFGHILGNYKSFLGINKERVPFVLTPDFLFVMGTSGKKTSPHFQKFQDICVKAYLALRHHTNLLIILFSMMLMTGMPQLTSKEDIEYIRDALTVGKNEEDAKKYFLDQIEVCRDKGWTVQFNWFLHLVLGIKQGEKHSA
# UniProt Q13356: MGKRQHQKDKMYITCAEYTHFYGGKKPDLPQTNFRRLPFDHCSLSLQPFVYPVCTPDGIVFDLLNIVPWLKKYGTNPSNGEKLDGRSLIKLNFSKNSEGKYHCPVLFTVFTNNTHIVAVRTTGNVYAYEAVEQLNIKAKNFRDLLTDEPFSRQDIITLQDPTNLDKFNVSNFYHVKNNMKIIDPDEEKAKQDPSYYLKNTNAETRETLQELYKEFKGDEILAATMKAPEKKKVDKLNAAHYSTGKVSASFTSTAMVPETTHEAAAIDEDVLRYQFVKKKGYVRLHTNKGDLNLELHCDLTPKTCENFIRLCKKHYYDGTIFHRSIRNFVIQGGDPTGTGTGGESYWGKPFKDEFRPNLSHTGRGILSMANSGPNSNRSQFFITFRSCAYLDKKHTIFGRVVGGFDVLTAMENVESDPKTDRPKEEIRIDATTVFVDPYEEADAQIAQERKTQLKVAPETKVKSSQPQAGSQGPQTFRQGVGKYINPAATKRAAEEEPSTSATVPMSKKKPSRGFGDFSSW
# UniProt O75439: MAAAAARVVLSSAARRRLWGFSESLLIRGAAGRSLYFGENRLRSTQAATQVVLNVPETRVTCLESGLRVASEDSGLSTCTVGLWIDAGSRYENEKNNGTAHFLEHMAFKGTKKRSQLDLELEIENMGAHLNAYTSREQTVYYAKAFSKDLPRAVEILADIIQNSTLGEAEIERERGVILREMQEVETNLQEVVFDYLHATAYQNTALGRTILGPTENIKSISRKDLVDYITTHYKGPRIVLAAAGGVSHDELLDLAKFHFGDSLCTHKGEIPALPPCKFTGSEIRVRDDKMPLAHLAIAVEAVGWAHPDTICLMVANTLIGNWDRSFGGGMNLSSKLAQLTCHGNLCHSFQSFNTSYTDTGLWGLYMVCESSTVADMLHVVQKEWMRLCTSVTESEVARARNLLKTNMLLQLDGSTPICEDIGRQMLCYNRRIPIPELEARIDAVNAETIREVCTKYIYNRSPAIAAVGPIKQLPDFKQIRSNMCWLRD
# UniProt Q8IV08: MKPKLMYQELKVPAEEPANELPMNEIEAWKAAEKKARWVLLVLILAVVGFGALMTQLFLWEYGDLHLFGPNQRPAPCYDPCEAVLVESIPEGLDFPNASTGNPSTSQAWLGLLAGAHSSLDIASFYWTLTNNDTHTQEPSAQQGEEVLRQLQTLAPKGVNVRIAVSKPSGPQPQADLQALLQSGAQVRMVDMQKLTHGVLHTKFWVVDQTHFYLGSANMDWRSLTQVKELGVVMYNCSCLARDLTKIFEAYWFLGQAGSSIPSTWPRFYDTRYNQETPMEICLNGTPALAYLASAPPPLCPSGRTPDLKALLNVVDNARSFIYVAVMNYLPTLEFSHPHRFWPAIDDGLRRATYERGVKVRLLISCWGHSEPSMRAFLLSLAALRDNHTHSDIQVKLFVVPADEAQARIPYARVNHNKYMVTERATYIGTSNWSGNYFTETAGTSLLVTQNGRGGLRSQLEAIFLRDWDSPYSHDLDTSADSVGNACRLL
# UniProt P48454, whole entry: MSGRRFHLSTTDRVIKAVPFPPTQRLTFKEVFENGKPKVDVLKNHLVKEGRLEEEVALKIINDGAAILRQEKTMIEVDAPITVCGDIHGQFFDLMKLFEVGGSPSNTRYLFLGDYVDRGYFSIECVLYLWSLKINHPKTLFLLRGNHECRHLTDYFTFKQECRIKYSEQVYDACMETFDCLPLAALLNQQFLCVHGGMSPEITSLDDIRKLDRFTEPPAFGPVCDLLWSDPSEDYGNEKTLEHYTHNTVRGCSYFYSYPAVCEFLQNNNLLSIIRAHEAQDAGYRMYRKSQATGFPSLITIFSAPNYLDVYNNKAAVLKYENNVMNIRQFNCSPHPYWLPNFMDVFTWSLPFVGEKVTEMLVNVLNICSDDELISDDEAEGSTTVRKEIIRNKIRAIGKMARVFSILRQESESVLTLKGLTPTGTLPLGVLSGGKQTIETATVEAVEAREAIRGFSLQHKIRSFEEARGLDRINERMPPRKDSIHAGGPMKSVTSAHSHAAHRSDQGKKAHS
# UniProt O95427: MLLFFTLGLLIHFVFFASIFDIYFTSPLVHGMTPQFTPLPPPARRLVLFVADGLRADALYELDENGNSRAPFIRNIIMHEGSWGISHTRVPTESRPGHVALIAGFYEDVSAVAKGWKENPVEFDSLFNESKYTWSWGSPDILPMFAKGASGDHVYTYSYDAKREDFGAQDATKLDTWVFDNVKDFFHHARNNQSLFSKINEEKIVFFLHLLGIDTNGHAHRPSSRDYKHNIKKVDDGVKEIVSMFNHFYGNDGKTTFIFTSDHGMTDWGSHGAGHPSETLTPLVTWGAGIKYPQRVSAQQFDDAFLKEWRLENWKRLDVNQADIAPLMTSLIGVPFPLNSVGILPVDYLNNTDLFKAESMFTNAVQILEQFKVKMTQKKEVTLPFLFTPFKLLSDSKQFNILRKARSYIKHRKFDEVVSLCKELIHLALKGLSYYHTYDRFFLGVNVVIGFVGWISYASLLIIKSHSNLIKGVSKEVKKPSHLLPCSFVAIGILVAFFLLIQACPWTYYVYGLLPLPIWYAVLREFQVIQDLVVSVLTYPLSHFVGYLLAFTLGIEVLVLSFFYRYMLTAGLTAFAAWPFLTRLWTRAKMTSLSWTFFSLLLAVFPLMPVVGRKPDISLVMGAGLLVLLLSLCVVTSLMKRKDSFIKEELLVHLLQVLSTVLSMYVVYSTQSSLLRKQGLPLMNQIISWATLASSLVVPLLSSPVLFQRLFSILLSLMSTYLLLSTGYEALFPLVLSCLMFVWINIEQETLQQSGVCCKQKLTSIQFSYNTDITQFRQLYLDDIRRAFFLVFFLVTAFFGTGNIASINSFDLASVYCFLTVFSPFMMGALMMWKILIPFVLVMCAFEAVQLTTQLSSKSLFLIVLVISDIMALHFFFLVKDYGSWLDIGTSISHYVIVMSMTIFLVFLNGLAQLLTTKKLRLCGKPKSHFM
# UniProt P41236: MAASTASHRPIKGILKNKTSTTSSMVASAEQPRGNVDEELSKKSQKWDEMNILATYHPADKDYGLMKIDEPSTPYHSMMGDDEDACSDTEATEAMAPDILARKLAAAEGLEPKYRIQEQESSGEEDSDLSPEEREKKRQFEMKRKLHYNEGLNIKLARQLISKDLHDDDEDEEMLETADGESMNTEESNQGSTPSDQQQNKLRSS
# UniProt Q66LE6: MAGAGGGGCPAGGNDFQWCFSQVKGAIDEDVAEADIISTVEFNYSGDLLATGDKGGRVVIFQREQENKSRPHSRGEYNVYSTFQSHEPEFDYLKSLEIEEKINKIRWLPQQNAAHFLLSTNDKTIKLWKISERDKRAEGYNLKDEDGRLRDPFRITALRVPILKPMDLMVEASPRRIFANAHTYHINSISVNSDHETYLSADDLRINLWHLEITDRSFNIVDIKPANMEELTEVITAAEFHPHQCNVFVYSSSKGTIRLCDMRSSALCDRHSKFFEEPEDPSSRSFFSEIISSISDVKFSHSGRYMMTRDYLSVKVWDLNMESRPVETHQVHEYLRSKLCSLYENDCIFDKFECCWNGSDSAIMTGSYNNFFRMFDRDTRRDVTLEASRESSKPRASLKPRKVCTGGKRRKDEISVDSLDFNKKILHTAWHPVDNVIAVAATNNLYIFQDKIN
# UniProt Q03405, whole entry: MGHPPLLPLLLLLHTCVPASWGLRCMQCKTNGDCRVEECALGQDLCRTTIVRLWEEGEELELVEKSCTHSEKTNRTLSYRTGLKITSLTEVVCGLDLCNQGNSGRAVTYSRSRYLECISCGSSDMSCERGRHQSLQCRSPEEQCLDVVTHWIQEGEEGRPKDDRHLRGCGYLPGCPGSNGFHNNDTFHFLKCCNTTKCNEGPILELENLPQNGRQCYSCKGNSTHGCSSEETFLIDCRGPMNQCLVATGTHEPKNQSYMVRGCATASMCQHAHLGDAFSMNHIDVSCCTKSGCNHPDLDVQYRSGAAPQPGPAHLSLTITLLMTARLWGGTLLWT
# UniProt Q16512: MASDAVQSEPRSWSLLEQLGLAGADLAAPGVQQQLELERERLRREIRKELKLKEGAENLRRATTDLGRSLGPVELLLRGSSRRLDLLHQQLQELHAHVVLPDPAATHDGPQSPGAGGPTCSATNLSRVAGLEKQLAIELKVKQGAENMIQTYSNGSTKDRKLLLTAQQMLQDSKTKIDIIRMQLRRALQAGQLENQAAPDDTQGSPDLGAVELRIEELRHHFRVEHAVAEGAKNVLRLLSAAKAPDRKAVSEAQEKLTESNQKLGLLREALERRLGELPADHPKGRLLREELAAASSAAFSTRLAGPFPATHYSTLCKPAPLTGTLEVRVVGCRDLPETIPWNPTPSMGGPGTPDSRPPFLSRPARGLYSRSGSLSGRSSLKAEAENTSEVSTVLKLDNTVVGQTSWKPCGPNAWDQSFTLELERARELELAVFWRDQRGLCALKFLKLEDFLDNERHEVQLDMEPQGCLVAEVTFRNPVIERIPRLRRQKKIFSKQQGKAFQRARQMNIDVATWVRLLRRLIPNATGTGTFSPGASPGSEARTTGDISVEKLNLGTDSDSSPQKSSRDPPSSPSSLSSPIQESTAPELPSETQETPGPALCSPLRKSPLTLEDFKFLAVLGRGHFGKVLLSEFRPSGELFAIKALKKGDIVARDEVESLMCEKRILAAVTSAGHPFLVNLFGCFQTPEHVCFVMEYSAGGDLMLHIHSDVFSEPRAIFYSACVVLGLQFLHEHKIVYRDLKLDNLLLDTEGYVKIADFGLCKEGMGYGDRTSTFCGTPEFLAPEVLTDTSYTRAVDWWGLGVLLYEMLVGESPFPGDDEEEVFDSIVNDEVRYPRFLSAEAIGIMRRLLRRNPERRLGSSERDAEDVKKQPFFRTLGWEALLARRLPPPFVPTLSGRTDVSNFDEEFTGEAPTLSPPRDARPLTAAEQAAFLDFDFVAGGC
# UniProt Q9BY77: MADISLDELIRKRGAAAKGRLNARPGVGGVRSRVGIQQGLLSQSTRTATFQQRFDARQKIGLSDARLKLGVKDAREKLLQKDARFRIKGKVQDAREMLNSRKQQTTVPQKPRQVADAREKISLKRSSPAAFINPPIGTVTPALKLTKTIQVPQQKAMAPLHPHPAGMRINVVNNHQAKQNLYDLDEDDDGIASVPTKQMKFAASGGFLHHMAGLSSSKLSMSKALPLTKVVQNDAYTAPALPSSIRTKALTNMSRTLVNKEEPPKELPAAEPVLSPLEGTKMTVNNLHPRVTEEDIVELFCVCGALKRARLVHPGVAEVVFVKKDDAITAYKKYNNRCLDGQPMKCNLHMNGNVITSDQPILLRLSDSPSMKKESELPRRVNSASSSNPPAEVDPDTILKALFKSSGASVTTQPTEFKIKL
# The list shows a part of the results.
# Compound: COc1ccc(Cn2ccc3ccc(C(=O)NO)cc32)cc1
# Assay: dose-dependent thermal stabilisation call (2D-TPP, DLPTP, 10% FDR) (binary (1 = stabilised)); higher = stabilised by the compound
# Details: system: HL-60 intact cells; concentration range 0.04-10 µM
row,Target,dose-dependent thermal stabilisation call
1,PPP2R5D (UniProt Q14738),inactive: 0
2,PPIL1 (UniProt Q9Y3C6),inactive: 0
3,PIK3CG (UniProt P48736),inactive: 0
4,PPP2R3A (UniProt Q06190),inactive: 0
5,PQLC1 (UniProt Q8N2U9),inactive: 0
6,PRAF2 (UniProt O60831),inactive: 0
7,PLA2G15 (UniProt Q8NCC3),inactive: 0
8,PPIL2 (UniProt Q13356),inactive: 0
9,PHKA2 (UniProt P46019),inactive: 0
10,PREPL (UniProt Q4J6C6),inactive: 0
11,PMPCB (UniProt O75439),inactive: 0
12,PLD3 (UniProt Q8IV08),inactive: 0
13,POLR2C (UniProt P19387),inactive: 0
14,PPP3CC (UniProt P48454),inactive: 0
15,PIGN (UniProt O95427),inactive: 0
16,POLR3B (UniProt Q9NW08),inactive: 0
17,PRIM2 (UniProt P49643),inactive: 0
18,PPIG (UniProt Q13427),inactive: 0
19,PRCP (UniProt P42785),inactive: 0
20,POLD2 (UniProt P49005),inactive: 0
21,PIGQ (UniProt Q9BRB3),inactive: 0
22,PPP1R2 (UniProt P41236),active: 1
23,PPP2R2D (UniProt Q66LE6),inactive: 0
24,POLR3H (UniProt Q9Y535),inactive: 0
25,PLAUR (UniProt Q03405),inactive: 0
26,PKN1 (UniProt Q16512),inactive: 0
27,POLDIP3 (UniProt Q9BY77),inactive: 0

# Given tab-delimited: part of the list above.
row	Target	dose-dependent thermal stabilisation call
2	PPIL1 (UniProt Q9Y3C6)	inactive: 0
13	POLR2C (UniProt P19387)	inactive: 0
